A: 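Assay of Toxoplasma gondii numbers, read through their beta-galactosidase reporter with a colour substrate. Concentration: 10 µM. Higher reads as fewer parasites (inferred from which compounds were picked for retests). Of about 67,000 compounds tested this way, about 260 (0.38%) reached 50% or more in at least one test.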
B: 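Enzyme assay of histidyl-tRNA synthetase; the read-out is not stated. Target: Histidine-tRNA ligase, Trypanosoma cruzi CL Brener (UniProt Q4DA54). Concentration: 30 µM. Direction is inferred from retests: higher values go with stronger inhibition. Of about 69,000 compounds tested this way, about 31 (0.045%) reached 50% or more in at least one test.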

Chains of the proteins cited; added tags and fusions are not shown. Residues count along the entry.
UniProt Q4DA54, 1-478: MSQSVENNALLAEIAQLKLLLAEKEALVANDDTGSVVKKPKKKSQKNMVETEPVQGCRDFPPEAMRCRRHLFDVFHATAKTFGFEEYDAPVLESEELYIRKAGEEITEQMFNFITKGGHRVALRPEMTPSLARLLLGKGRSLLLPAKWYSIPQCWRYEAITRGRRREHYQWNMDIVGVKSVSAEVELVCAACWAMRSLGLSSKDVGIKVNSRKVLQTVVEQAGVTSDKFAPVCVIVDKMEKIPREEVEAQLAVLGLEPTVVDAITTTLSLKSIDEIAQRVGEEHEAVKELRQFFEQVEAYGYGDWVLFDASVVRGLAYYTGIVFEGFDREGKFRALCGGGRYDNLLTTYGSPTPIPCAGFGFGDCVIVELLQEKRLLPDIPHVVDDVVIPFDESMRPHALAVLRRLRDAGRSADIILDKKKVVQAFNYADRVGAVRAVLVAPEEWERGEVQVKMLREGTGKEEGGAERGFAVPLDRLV

Values are the deposited “Percent Effect”, in %.
The controls that fix the scale are not given in the record; negative values are as filed.
Compounds were drawn at random from those tested, without regard to their results.

* Cc1nccn1C1CCCN(C(=O)c2ccnc(-n3ccnc3)c2)C1 (stereo not given) : A: -31.53%; B: 2.579%
* Cc1ccc(O)c(C(=O)N2C[C@@H](C(=O)O)[C@H](c3ccccc3)C2)c1 : A: 0.5917%; B: 3.509%
* CC(=O)Nc1cnc(Oc2ccccc2F)nc1 : A: 13%; B: 1.031%
* CSC(C)(C)CNC(=O)NC1CCC1 : A: -16.86%; B: 11.67%
* Nc1nc(Nc2ccccc2)cc(N2CCNCC2)n1 : B: 10.23%
* Cc1ccc([C@H]2CN(C(=O)C3CCC3)C[C@@H]2N)o1 : A: -7.366%; B: 10.64%
* Cc1c(Br)cccc1C(=O)NCC1CCNCC1 : B: 6.404%
* Cn1cccc1CN1CCC2(CCCN(C(=O)c3cnccn3)C2)C1 (stereo not given) : B: 3.261%
* CNS(=O)(=O)CCCN1CCN(C(C#N)c2ccccc2)CC1 (stereo not given) : B: 6.931%
* Cc1nc(NC2(CN3CCCCC3)CCCCC2)c2cnn(C)c2n1 : A: -9.341%; B: 6.468%
* O=C(N[C@H]1CN(C2CCOCC2)C[C@@H]1C1CC1)c1ccon1 : A: 27.37%; B: 4.255%
* CN(C)C(=O)c1sc2ncccc2c1C1CNCCO1.Cl (stereo not given) : A: 12.96%
* CC(NC(=O)c1cccnc1N(C)C)c1ccccc1Cl (stereo not given) : A: -3.558%; B: 1.053%
* CCCNc1nc(CS(=O)(=O)c2ccccc2)cs1 : A: 2.519%; B: 6.897%
* [H][C@]12CC[C@]([H])(CN(c3nccc(N)n3)C1)N(CC1CCC1)C2=O : A: 13.09%
* O=C(c1ncoc1C1CCCO1)N1CC2(CCCC2)c2ccccc21 (stereo not given) : A: 14.55%; B: 3.896%
* Cc1cc(CNC2CCCN(Cc3noc(C4CC4)n3)C2)on1 (stereo not given) : A: 9.094%; B: 2.339%
* FC(F)(F)c1cccc(C2(CNCc3ccncc3)CCOCC2)c1 : A: -11.28%; B: 5.882%
* CC(C)c1n[nH]c(C2CN(C(=O)c3cc(C4CC4)[nH]n3)CCO2)n1 (stereo not given) : A: 8.345%; B: 1.156%
* CN(Cc1cc(C(C)(C)C)n[nH]1)C(=O)c1ccc2nccn2c1 : A: 15.74%; B: 10%
* CSc1nc(N)cc(N2C[C@@H]3CC[C@H](C2)N(CC2CC2)C3=O)n1 : B: 3.784%
* CN(C)CC(=O)N1C[C@@H]2CC[C@H](Oc3ccccc3Cl)[C@@H]2C1 : B: 7.027%
* Cc1cnn(CC2CCCN2Cc2ncc(-c3ccccc3)o2)c1 (stereo not given) : A: 2.125%; B: 0%
* CC(C)Oc1ccc(CNC(=O)NCc2ccncc2)cc1F : A: 1.603%; B: 3.79%
* CCn1c(Cn2cncn2)nnc1C1CCN(Cc2ccccn2)CC1 : A: 10.77%; B: 10.84%
* Cc1cnn(CCNCc2csc(-c3cccs3)n2)c1 : A: -13.13%; B: 4.943%
* O=C(O)C(F)(F)F.[H][C@@]12CCCO[C@]1([H])[C@H](NC(=O)CC1CC1)CN(Cc1ccco1)C2 : A: 5.239%
* Cc1ccc(C(=O)N2CCC3(CCC(=O)N(CC(N)=O)C3)CC2)c(O)c1 : A: 3.373%; B: 3.252%
* Cc1cnn(CC2CCCN2C(=O)CN(C)C2CC2)c1 (stereo not given) : A: 8.217%; B: 2.286%
* NC(=O)COc1cccc(C(=O)N2CCCC(n3cccn3)C2)c1 (stereo not given) : A: 2.8%; B: -3.448%
* CC(C)CC(=O)N1Cc2ccccc2CC1C(=O)Nc1nncs1 (stereo not given) : A: -11.92%; B: 4.762%
* O=C(c1ccnnc1)N1CC[C@H]2[C@H]1CCN2S(=O)(=O)C1CC1 : B: 2.186%
* Cc1ccc2c(c1)C(NC1CC1)CC21CCNCC1 (stereo not given) : B: 2.21%
* Cc1ccc(CNC(=O)N2CCc3ccccc3C2CO)s1 (stereo not given) : A: 1.023%; B: 6.667%
* CC(C)CN1C(=O)C2(CCN(Cc3ccsc3)C2)c2ccccc21 (stereo not given) : B: -2%
* CN(C)CCN1CCOCC2(CCCN(C(=O)c3cccn3C)C2)C1 (stereo not given) : B: 7.843%
* COc1cccc(COCC(=O)NC2CCN(CC(N)=O)CC2)c1 : A: -6.321%; B: 7.937%
* Cc1cc(-c2cc(N)c(=O)n(CC(=O)NC3CCCC3)n2)c(C)o1 : A: 3.178%; B: -0.7576%
* CCc1ccc(C(=O)N2CCCC(n3nc(C)nc3C)C2)o1 (stereo not given) : A: 1.505%; B: 0.5882%
* OC1(CNCCN2CCc3ccccc32)CNCCOC1 (stereo not given) : A: -0.03994%; B: 4.124%

For reference, 3 entries once more:

* CSC(C)(C)CNC(=O)NC1CCC1 : A: -16.86%; B: 11.67%
* CC(=O)Nc1cnc(Oc2ccccc2F)nc1 : A: 13%; B: 1.031%
* [H][C@]12CC[C@]([H])(CN(c3nccc(N)n3)C1)N(CC1CCC1)C2=O : A: 13.09%

Measurements from “University of Dundee, Small-Polar-MMV Screening Library” (2021), ChEMBL document CHEMBL3988442.